Paper PMC7829492
Results are given in words; binding and its absence hold for the method and conditions named. Binding seen in cells or lysates may run through a third protein. A yes stands for co-enrichment or nearness to the bait. Other partners may have been found. Where a sequence is shown, tags or fusion partners need not be part of it.

T1: FLAG-tagged human C2CD4A (C2 calcium dependent domain containing protein 4A) (human) (UniProt Q8NCU7)
T1 sequence: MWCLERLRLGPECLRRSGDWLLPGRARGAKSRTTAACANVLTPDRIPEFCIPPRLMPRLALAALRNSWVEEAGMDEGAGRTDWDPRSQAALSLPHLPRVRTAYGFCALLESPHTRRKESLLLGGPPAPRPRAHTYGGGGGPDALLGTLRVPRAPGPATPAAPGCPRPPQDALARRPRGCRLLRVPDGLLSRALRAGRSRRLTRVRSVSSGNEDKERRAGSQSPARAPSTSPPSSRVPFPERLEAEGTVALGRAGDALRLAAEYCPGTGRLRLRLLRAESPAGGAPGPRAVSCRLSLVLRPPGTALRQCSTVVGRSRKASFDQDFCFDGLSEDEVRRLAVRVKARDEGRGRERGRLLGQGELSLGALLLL

T2: FLAG-tagged human C2CD4B (C2 calcium dependent domain containing protein 4B) (human) (UniProt A6NLJ0)
T2 sequence: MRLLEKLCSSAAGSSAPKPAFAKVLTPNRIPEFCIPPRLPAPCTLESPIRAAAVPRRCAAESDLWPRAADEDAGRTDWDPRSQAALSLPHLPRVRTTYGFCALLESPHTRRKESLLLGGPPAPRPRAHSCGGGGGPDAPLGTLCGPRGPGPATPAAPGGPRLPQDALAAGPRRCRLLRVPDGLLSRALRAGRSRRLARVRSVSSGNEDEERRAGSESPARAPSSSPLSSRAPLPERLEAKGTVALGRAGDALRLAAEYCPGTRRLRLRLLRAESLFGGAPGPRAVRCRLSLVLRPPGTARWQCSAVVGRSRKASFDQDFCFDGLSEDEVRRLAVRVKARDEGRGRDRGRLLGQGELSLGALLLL


Tests used:
[1] = target: T1, FLAG-tagged human C2CD4A (C2 calcium dependent domain containing protein 4A) (human); assay: affinity purification with mass spectrometry; immunoprecipitation from MIN6 cells transfected in duplicate with FLAG-tagged human C2CD4A or C2CD4B; FLAG tag-only plasmid as negative control; hits normalised to the negative control and ranked by abundance
[2] = target: T2, FLAG-tagged human C2CD4B (C2 calcium dependent domain containing protein 4B) (human); assay: as above

Row | Binder | binding [1] | binding [2]
1 | Receptor-type tyrosine-protein phosphatase-like N (protein, UniProt Q60673 38-979) ISAHGCLFDRRLCSHLEVCIQDGLFGQCQAGVGQARPLLQVTSPVLQRLQGVLRQLMSQGLSWHDDLTQHVISQEMERIPRLRPPEPHPRDRSGLVPRKPGPAGELLTQGNPTGSSPAAQGFPRPAGGRSWGGSPLSSLQAELLPPLLEHLLMPPQPPHPALTYEPALLQPYLFHQFGSRDGSRGSESSSGVVGVGHLSKAEGPALFSRSASKAILGTHSGHSFGDLTGPSPAQLFQDSGLLYMAQELPVPGRARAPRLPENGGNRAEDSSEGHEEEVLGGRGEKSPPQAAQPELSLQRLTAVLAGYGVELRQLTPEQFSTLLTLLQLLPKGTGRNLEGAVNVGGADVKKTIQQMQRGDPAEALPPTPSLPGYLTASPASSEVQQVLSPGFPEPPHTPSPLGSSSVLLEKKSPLGQSQPTVVGRPSARPSAEEYGYIVTDQKPLSLVAGVRLLEILAEHVHMSSGSFINISVVGPAVTFRIRHNEQNLSLADVTQQAGLVKSELEAQTGLQILQTGVGQREEAAEVLPRQAHGISPMRSVLLTLVALAGVAGLLVALAVALCMRHHSRQRDKERLAALGPEGAHGDTTFEYQDLCRQHMATKSLFNRAEGQPEPSRVSSVSSQFSDAAQASPSSHSSTPSWCEEPAQANMDISTGHMILAYMEDHLRNRDRLAKEWQALCAYQAEPNTCAAAQDESNIKKNRHPDFLPYDHARIKLKVESSPSRSDYINASPIIEHDPRMPAYIATQGPLSHTIADFWQMVWESGCTVIVMLTPLVEDGVKQCDRYWPDEGSSLYHVYEVNLVSEHIWCEDFLVRSFYLKNLQTQETRTLTQFHFLSWPAEGTPASTRPLLDFRRKVNKCYRGRSCPIIVHCSDGAGRTGTYILIDMVLNRMAKGVKEIDIAATLEHVRDQRPGLVRSKDQFEFALTAVAEEVNAILKALPQ | binds | binds
2 | PTPRN2 (phogrin/IA-2β) (protein, UniProt P80560 28-1001) RGRQLPGRLGCLFEDGLCGSLETCVNDGVFGRCQKVPVMDTYRYEVPPGALLHLKVTLQKLSRTGFTWQDDYTQRVIAQELANLPKAYLWHGEASGPARSLQQNADNEKWFSLEREVALAKTLRRYLPYLELLSQTPTANAHSRIDHETRPAKGEDSSPENILTYVAHTSALTYPPATRAKYPDNLLRPFSRLQPDELSPKVDGDIDKQKLIAALGAYTAQRLPGENDPEPRYLVHGSARAPRPFSATALSQRWPPPPGDAKDSPSMDDDTLLQSLLKDLQQNSEVDRLGPLKEEKADSVAGAIQSDPAEGSQESHGRGAEGQPREQTDAPETMLQDHRLSEVDDPVYKEVNRLSFQLGDLLKDYGSPLLPEGPLLEKSSREEIKKSEQPEEVLSSEEETAGVEHVRSRTYSKDLFERKPNSEPQPRRLEDQFQNRAPELWEDEESLKLAAQGPPSGGLQLEVQPSEEQQGYILTGNNPLSPEKGKQLMDQVAHILRVPSSFFADIKVLGPAVTFKVSANIQNMTTADVIKAAADNKDQLEKATGLTILQSGIRPKGKLKLLPHQEEQEDSTKFILLTFLSIACILGVLLASSLAYCLRHNSHYKLKDKLSGLGADPSADATEAYQELCRQRMAIRPQDRSEGPHTSRINSVSSQFSDGPMPSPSARSSTSSWSEEPVQSNMDISTGHMILAYMEDHLKNKNRLEKEWEALCAYQAEPNSSLVAQREENAPKNRSLAVLTYDHSRILLKSQNSHGSSDYINASPIMDHDPRNPAYIATQGPLPATVADFWQMVWESGCAVIVMLTPLSENGVRQCHHYWPDEGSNLYHVYEVNLVSEHIWCQDFLVRSFYLKNLQTNETRTVTQFHFLSWYDQGVPSSTRSLLDFRRKVNKCYRGRSCPIIVHCSDGAGRSGTYVLIDMVLNKMAKGAKEIDIAATLEHLRDQRPGMVQTKEQFEFALTAVAEEVNAILKALPQ | binds | binds
